From article doi:10.1101/2024.09.06.611746
No constants are given. Whether binding was seen depends on the method and setting. Binding seen in cells or lysates may run through a third protein. Binding calls can cover weak binding; strength is not graded here.

Target: Flag-tagged porcine CaV3.1 fragment pCav3.1N_(2209-4506) (porcine)
Assay: co-IP

B1: Pasteurella multocida toxin (PMT), recombinant (protein, UniProt P17452 1-1285)
chain: MKTKHFFNSDFTVKGKSADEIFRRLCTDHPDKQLNNVKWKEVFINRFGQMMLDTPNPRKIVEKIINEGLEKQGLKNIDPETTYFNIFSSSDSSDGNVFHYNSLSESYRVTDACLMNIFVERYFDDWDLLNSLASNGIYSVGKEGAYYPDHDYGPEYNPVWGPNEQIYHSRVIADILYARSVWDEFKKYFMEYWQKYAQLYTEMLSDTFLAMAIQQYTRQTLTDEGFLMVCNTYYGNKEEVQITLLDIYGYPSTDIICIEQKGLPTPKVILYIPGGTQPFVEFLNTDDLKQWIAWHLKDNKHMVAFRKHFSLKQRQEGETFTGIDKALQYIAEESPEWPANKYILYNPTHLETENLFNIMMKRTEQRMLEDSDVQIRSNSEATRDYALSLLETFISQLSAIDMLVPAVGIPINFALSATALGLSSDIVVNGDSYEKRKYGIGSLVQSALFTGINLIPVISETAEILSSFSRTEEDIPAFFTEEQALAQRFEIVEEELHSISPDDPPREITDENLHKIRLVRLNNENQPLVVLRRLGGNKFIRIEPITFQEIKGSLVSEVINPVTNKTYYVSNAKLLGGSPYSPFRIGLEGVWTPEVLKARASVIGKPIGESYKRILAKLQRIHNSNILDERQGLMHELMELIDLYEESQPSSERLNAFRELRTQLEKALYLPEMEALKKQILQIPNKGSGAARFLLRTAMNEMAGKTSESTADLIRFALQDTVISAPFRGYAGAIPEAIDFPVKYVIEDISVFDKIQTNYWELPAYESWNEGSNSALLPGLLRESQSKGMLSKCRIIENSLYIGHSYEEMFYSISPYSNQVGGPYELYPFTFFSMLQEVQGDLGFEQAFATRNFFNTLVSDRLSLMENTMLLTESFDYTPWDAIYGDINYDEQFAAMSINERIEKCMNTYRGVAFQNSSKSIDFFLNNLTTFIDNGLTEIAISDLPYDIVQQEISQFLQGSNEWKTLDAMLFNLDKGDINGAFRKLLQSAKDNNIKFRAIGHSDNSVPPFNNPYKSLYYKGNIIAEAIEKLDREGQKFVVFADSSLLNSTPGTGRPMPGLVQYLKIPATVVDSDGAWQFLPDVASSRVPIEVTELENWQVLTPPQGKILGLKQFKLTAGFPTEQSRLPLLENSVSEDLREELMQKIDAIKNDVKMNSLVCMEAGSCDSVSPKVAARLKDMGLEAGMGASITWWRREGGMEFSHQMHTTASFKFAGKEFAVDASHLQFVHDQLDTTILILPVDDWALEIAQRNRAINPFVEYVSKTGNMLALFMPPLFTKPRLTRAL
binding: binds
